Experimental data taken from publication PMC4433226.

Protein sequences, listed by entry. Tags and fused reporters are not part of them.
UniProt P78527, whole entry: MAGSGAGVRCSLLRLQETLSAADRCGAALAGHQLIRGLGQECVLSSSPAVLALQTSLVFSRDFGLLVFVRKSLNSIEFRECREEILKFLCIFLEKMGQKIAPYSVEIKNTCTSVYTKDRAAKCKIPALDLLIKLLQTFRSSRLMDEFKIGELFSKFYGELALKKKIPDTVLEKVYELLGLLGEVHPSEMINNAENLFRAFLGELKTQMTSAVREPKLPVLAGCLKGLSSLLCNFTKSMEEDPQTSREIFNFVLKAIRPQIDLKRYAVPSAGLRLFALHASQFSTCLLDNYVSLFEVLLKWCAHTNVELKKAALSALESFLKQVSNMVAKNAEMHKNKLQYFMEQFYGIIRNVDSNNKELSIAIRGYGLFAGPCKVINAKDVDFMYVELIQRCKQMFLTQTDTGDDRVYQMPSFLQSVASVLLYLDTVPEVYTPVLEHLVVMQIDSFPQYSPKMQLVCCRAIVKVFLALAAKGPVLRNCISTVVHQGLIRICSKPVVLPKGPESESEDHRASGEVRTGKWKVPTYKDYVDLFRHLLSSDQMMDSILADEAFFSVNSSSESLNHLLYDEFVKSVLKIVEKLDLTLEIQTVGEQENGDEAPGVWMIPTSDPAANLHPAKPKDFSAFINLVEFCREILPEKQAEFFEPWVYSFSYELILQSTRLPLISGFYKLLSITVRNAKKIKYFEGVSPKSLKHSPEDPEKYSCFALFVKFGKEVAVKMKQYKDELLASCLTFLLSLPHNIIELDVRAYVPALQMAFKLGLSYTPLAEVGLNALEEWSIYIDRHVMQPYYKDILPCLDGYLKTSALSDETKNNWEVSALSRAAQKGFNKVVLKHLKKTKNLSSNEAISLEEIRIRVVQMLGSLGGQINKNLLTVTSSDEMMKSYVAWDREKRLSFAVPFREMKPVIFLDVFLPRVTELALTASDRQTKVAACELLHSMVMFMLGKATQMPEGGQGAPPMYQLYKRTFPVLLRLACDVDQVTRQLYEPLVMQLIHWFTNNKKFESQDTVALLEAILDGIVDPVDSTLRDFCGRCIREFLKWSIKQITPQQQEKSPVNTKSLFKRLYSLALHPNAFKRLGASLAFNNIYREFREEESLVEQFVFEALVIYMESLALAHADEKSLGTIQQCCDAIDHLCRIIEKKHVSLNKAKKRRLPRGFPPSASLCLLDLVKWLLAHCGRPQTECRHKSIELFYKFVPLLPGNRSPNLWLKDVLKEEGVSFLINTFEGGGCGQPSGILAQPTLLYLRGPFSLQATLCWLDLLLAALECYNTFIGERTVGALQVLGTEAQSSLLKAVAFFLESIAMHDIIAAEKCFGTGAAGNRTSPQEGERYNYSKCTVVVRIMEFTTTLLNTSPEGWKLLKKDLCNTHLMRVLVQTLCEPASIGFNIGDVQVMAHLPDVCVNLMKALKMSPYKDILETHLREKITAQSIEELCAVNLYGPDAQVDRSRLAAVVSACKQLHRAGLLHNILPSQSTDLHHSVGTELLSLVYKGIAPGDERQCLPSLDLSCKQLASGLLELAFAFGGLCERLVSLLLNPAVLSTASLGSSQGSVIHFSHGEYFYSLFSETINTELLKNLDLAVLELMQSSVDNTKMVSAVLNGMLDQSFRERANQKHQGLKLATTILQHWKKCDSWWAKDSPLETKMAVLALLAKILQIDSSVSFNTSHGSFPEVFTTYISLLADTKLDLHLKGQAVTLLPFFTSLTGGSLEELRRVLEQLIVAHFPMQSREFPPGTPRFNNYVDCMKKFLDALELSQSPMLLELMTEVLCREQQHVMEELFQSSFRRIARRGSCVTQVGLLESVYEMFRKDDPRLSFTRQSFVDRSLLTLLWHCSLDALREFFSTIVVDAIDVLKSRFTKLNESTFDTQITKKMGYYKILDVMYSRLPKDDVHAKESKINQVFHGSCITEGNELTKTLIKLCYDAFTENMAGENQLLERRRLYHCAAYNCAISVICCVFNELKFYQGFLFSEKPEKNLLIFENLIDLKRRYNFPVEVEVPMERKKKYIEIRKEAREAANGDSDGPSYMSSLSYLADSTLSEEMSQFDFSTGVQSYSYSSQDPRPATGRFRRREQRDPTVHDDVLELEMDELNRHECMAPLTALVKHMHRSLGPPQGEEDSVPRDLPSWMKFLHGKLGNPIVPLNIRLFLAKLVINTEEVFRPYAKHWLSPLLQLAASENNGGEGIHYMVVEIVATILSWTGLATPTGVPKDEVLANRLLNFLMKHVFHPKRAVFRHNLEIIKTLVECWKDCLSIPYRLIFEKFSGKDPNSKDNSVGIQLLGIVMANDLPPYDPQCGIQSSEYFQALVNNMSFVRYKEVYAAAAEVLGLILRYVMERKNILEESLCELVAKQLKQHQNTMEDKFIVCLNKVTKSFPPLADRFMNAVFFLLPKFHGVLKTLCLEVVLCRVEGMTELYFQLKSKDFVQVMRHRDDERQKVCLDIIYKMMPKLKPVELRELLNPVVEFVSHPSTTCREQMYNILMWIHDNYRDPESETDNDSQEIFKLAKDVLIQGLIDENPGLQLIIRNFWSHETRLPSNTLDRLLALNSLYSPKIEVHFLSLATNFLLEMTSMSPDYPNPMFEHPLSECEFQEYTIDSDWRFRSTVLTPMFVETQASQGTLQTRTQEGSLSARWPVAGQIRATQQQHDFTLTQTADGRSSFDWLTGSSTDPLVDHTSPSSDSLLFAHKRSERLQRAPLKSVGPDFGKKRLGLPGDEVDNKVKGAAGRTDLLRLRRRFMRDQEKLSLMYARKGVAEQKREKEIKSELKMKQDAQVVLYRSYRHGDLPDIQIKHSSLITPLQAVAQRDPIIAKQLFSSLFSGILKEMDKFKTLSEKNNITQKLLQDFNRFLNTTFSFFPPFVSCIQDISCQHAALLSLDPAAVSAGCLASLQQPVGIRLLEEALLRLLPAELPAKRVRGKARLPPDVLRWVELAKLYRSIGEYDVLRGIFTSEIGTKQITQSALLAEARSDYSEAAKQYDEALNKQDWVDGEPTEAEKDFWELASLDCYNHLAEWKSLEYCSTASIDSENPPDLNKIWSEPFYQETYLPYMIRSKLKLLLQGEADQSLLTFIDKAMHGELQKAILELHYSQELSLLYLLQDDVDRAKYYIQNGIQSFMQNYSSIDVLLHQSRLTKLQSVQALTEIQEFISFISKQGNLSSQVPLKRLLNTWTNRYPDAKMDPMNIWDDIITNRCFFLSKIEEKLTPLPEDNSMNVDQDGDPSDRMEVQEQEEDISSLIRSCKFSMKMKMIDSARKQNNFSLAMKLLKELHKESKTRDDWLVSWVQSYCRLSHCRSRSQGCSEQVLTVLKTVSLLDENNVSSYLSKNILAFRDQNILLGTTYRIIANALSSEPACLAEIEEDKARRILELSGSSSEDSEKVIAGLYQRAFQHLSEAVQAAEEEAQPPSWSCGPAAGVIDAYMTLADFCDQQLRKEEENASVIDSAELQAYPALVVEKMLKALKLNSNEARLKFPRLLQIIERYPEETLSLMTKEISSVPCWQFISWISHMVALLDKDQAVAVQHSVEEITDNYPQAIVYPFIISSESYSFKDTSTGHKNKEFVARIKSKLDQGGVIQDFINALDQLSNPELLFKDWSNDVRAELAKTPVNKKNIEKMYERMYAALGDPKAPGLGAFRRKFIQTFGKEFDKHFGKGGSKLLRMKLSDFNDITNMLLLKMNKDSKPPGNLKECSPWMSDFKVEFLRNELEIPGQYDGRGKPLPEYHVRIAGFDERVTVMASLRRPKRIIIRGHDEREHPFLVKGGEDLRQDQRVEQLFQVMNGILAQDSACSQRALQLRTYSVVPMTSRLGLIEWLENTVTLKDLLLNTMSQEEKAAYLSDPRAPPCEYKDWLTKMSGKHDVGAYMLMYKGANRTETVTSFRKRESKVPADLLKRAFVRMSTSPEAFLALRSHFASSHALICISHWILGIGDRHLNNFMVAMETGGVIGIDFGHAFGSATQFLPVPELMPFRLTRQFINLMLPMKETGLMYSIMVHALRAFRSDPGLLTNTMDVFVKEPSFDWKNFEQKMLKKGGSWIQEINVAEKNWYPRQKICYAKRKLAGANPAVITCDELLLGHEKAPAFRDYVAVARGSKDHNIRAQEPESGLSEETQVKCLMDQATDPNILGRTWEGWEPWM

Assays:
[1] = test system: Ku70/Ku80 CLH (core-linker-helix); test: EMSA; settings: not statistically different from wild type; EMSA: 20 ul, 500 fmol DNA, buffer as in earlier papers; recombinant protein; protein details: His (Ku70)
[2] = test system: Ku70/Ku80 core; test: EMSA; settings: not statistically different from wild type; EMSA: 20 ul, 500 fmol DNA, buffer as in earlier papers; recombinant protein; protein details: His (Ku70)
[3] = test system: Ku70/Ku80 CL (core-linker); test: EMSA; settings: not statistically different from wild type; EMSA: 20 ul, 500 fmol DNA, buffer as in earlier papers; recombinant protein; protein details: His (Ku70)
[4] = molecular target: DNA-PKcs (human (HeLa cells)) (UniProt P78527); test: ELISA; settings: no Ku; ELISA: 20 mM HEPES pH 7.5, 75 mM KCl, 10% glycerol, 0.005% Triton X-100, 2 mM DTT, room temperature, 1 h, 2 pmol DNA, 424 ng DNA-PKcs; native protein; label: 5' biotin on one end
[5] = test system: Ku70/Ku80 core + DNA-PKcs; test: ELISA; settings: wild-type level; ELISA: 20 mM HEPES pH 7.5, 75 mM KCl, 10% glycerol, 0.005% Triton X-100, 2 mM DTT, room temperature, 1 h, 2 pmol DNA, 424 ng DNA-PKcs; recombinant protein; protein details: His (Ku70); label: 5' biotin on one end
[6] = test system: Ku70/Ku80 wild type + DNA-PKcs; test: ELISA; settings: same as 30bp, less than half of 60bp; ELISA: 20 mM HEPES pH 7.5, 75 mM KCl, 10% glycerol, 0.005% Triton X-100, 2 mM DTT, room temperature, 1 h, 2 pmol DNA, 424 ng DNA-PKcs; recombinant protein; protein details: His (Ku70); label: 5' biotin on one end

CACTTCCAACAGAGGTGACACTGCCTTCAG (double strand) [30bp blunt (EMSA)]
binding result [1]: binds
binding result [2]: binds
binding result [3]: binds

CACTTCCAACAGAGGTGACACTGCCTTCAG (double strand) [30bp blunt, biotinylated]
binding result [4]: binds more weakly

CTTGACCAGTAGTCTAGCACGTGACGATTGCATGCGTCAAGTAAGATGCAGATACTTAAC (double strand) [60bp blunt, biotinylated]
binding result [4]: binds more weakly

TGACATTGAATTCTCTCCACCATATGGAATTTGATTATGTAATATGCGAAGAATGTGGGAAAGAATTTATGGATTCTTATCTTATGAACCACTTTGATTTGCCAACTTGTGATAACTGCAGAGATGCTGATGATAAACACAAGCTTATAACCAAAACAGAGGCAAAACAAGAATATCTTCTGAAAGACTGTGATTTAGAAAAAAGAGAGCCACCTCTTAAATTTATTGTGAAGAAGAATCCACATCATTCACAATGGGGTGATATGAAACTCTACTTAAAGTTACAGATTGTGAAGAGGTCTCTTGAAGTTTGGGGTAGTCAAGAAGCATTAGAAGAAGCAAAGGAAGTCCGACAGGAAAACCGAGAAAAAATGAAACAGAAGAAATTTTAGTAGGGATCCGTGGATTGAATTCCCTCCGA (double strand) [421bp (~400bp) blunt, biotinylated]
binding result [5]: binds
binding result [6]: binds

For at least one entry, the source does not settle the construct or the ends of the probe. For some of these results: The comparison behind a weaker result is the experiment's own reference, which may not be listed here. For some of these results: At least one verdict rests on a figure or table, not on a statement of the authors.
